Measurements: the supplement of paper PMC7024190
Where a name gives a salt, the structure may show the parent alone. Some of the results follow. Single values are uncertain here, since repeats match poorly.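 The cells were human embryonic kidney cells carrying a Renilla luciferase gene, driven by the HSV-TK promoter, on a plasmid put in briefly by transfection. This is the first-round screen of about ten thousand compounds, looking for ones that raise reporter output.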

Tested on: HEK 293FT
Experiment: log relative Renilla luciferase luminescence (reporter expression vs reference, reference not stated) (log (base not stated)); higher = higher recombinant reporter expression
Details: 10 µM; time after transfection 48 h

`CC(C)(C(=O)O)c1ccc(C(O)CCCN2CCC(C(O)(c3ccccc3)c3ccccc3)CC2)cc1` (stereo not drawn) [fexofenadine hydrochloride] and `CN(C)C(=O)C(CCN1CCC(O)(c2ccc(Cl)cc2)CC1)(c1ccccc1)c1ccccc1` [loperamide hydrochloride] are within 0.2 log units of each other in log: 0.178 for the first, 0.164 for the second.

`C[C@]1(OC(=O)/C=C/c2ccccc2)C[C@@H](O)[C@]2(O)C=CO[C@@H](O[C@@H]3O[C@H](CO)[C@@H](O)[C@H](O)[C@H]3O)[C@@H]21` [harpagoside] and `O=C1c2c(O)cccc2C([C@@H]2O[C@H](CO)[C@@H](O)[C@H](O)[C@H]2O)c2cc(CO)cc(O)c21` (stereo partly drawn) [aloin] are within 0.2 log units of each other in log: 0.109 for the first, 0.0437 for the second.

`COc1ccc2c(c1)OC/C(=C\c1ccc(OC)c(O)c1)C2=O` [sappanone a dimethyl ether] and `C=CC(C1=CC(=O)C(OC)=CC1=O)c1ccc(OC)cc1` (stereo not drawn) [4,4'-dimethoxydalbergione] are within 0.2 log units of each other in log: 0.25 for the first, 0.0664 for the second.

`C[N+]1(C)[C@@H]2CC[C@H]1C[C@@H](OC(=O)C(O)c1ccccc1)C2` (stereo partly drawn) [homatropine methylbromide] and `CC1CC(OC(=O)C(O)c2ccccc2)CC(C)(C)C1` (stereo not drawn) [cyclandelate] are within 0.2 log units of each other in log: 0.133 for the first, 0.1 for the second.

`COC(=O)C1=C(C)NC(C)=C(C(=O)OCCN2CCN(C(c3ccccc3)c3ccccc3)CC2)C1c1cccc([N+](=O)[O-])c1` (stereo not drawn) [manidipine hydrochloride] and `CCOC(=O)[C@H](CCc1ccccc1)N[C@@H](C)C(=O)N1Cc2ccccc2C[C@H]1C(=O)O` [quinapril hydrochloride] are within 0.2 log units of each other in log: -0.148 for the first, 0.0126 for the second.

`COC(=O)[C@H]1[C@H]2C[C@H]3c4[nH]c5ccccc5c4CCN3C[C@@H]2CC[C@@H]1O` [corynanthine] and `O=C(C1CCCCC1)N1CC(=O)N2CCc3ccccc3C2C1` (stereo not drawn) [praziquantel] are within 0.2 log units of each other in log: 0.0828 for the first, 0.0779 for the second.

First: CC(=O)Nc1ccccc1 [acetanilide]
Second: CC(=O)NS(=O)(=O)c1ccc(NC(=O)c2ccccc2C(=O)O)cc1 [phthalylsulfacetamide]
The log of the first is higher: 0.0992 for the first, -0.212 for the second.

First: CSc1ccc2c(c1)C(N1CCN(C)CC1)Cc1ccccc1S2 (stereo not drawn) [metitepine maleate]
Second: CN1CCN(CCCN2c3ccccc3Sc3ccc(C(F)(F)F)cc32)CC1 [trifluoperazine hydrochloride]
The log of the first is lower: -0.491 for the first, -0.114 for the second.

`C[C@H]1COc2c(C3(N)CC3)c(F)cc3c(=O)c(C(=O)O)cn1c23` [pazufloxacin mesylate] and `CC(C)c1ccc2oc3nc(N)c(C(=O)O)cc3c(=O)c2c1` [amlexanox] are within 0.2 log units of each other in log: -0.148 for the first, 0.0358 for the second.

`CC(C(=O)O)c1ccc2c(c1)Cc1cccnc1O2` (stereo not drawn) [pranoprofen] and `CC(C(=O)O)c1ccc2c(c1)[nH]c1ccc(Cl)cc12` (stereo not drawn) [carprofen] are within 0.2 log units of each other in log: -0.13 for the first, -0.000478 for the second.

`COC(=O)Nc1nc2cc(C(=O)c3ccccc3)ccc2[nH]1` [mebendazole] and `CC(CCc1ccccc1)NCC(O)c1ccc(O)c(C(N)=O)c1` (stereo not drawn) [labetalol hydrochloride] are within 0.2 log units of each other in log: -0.149 for the first, 0.0488 for the second.

`CC1(C)S[C@@H]2[C@H](NC(=O)[C@H](NC(=O)N3CCNC3=O)c3ccccc3)C(=O)N2[C@H]1C(=O)O` [azlocillin sodium] and `Cc1onc(-c2c(Cl)cccc2Cl)c1C(=O)N[C@@H]1C(=O)N2[C@@H]1SC(C)(C)[C@@H]2C(=O)O` [dicloxacillin sodium] are within 0.2 log units of each other in log: 0.119 for the first, 0.00912 for the second.

First: CCCCCCCCCc1ccc(OCCOCCOCCOCCOCCOCCOCCOCCOCCO)cc1 [nonoxynol-9]
Second: CCCCCCc1ccc(O)cc1O.Nc1c2ccccc2nc2ccccc12 [acrisorcin]
The log of the first is lower: -1.69 for the first, 0.162 for the second.

`NC(=O)c1cc[n+](CC2=C(C(=O)O)N3C(=O)[C@@H](NC(=O)[C@@H](c4ccccc4)S(=O)(=O)[O-])[C@H]3SC2)cc1` [cefsulodin sodium] and `CO/N=C(\C(=O)N[C@@H]1C(=O)N2C(C(=O)O)=C(CSc3nnnn3C)CS[C@H]12)c1csc(N)n1` [cefmenoxime hydrochloride] are within 0.2 log units of each other in log: 0.0585 for the first, -0.132 for the second.

Compared with `CC1(C)CC[C@]2(C)CC[C@]3(C)C(=CC[C@@H]4[C@@]5(C)CC[C@H](O)C(C)(C)[C@@H]5CC[C@]43C)[C@@H]2C1` [beta-amyrin], `COC(=O)C[C@H]1C(C)(C)C2(O)OC34CC2C(=O)[C@]1(C)C3CC[C@]1(C)C4=CC(=O)O[C@H]1c1ccoc1` (stereo partly drawn) [8beta-hydroxycarapin, 3,8-hemiacetal] is lower in log: 0.0307 for the first, -0.218 for the second.

`Cc1cc2c(cc1S(N)(=O)=O)S(=O)(=O)CCC2` [meticrane] and `Cc1cc(O)c(C=O)c2c1C(=O)Oc1c(C)c(O)c3c(c1O2)C(O)OC3=O` (stereo not drawn) [norstictic acid] are within 0.2 log units of each other in log: 0.111 for the first, -0.0587 for the second.

Going from `CN1C(C)(C)CCCC1(C)C` [pempidine tartrate] to `C=CC(C)(O)CCC1C(=C)CC(OC(C)=O)C2C(C)(C)CCCC12C` (stereo not drawn) [larixol acetate], the log rises from -0.0634 to 0.197.

`O=c1ccc2ccc(O)cc2o1` [umbelliferone] and `O=c1cc(-c2ccc(O)cc2)oc2ccc(O)cc12` [6,4'-dihydroxyflavone] are within 0.2 log units of each other in log: 0.12 for the first, 0.102 for the second.

`CN(C)/N=N/c1[nH]cnc1C(N)=O` [dacarbazine] and `Nc1nc2[nH]cnc2c(=S)[nH]1` [thioguanine] are within 0.2 log units of each other in log: 0.135 for the first, 0.0176 for the second.

`C[N+](C)(C)CCCCCC[N+](C)(C)C` [hexamethonium bromide] and `CC(=O)NCCCS(=O)(=O)O` [acamprosate calcium] are within 0.2 log units of each other in log: -0.054 for the first, -0.0343 for the second.

`Cc1oncc1C(=O)Nc1ccc(C(F)(F)F)cc1` [leflunomide] and `O=C(O)c1cccnc1Nc1cccc(C(F)(F)F)c1` [niflumic acid] are within 0.2 log units of each other in log: -0.102 for the first, -0.0736 for the second.

`O=C(O)c1cccc(O)c1O` [pyrocatechuic acid] and `O=C(O)c1cc(/N=N/c2ccc(O)c(C(=O)O)c2)ccc1O` [olsalazine sodium] are within 0.2 log units of each other in log: -0.00241 for the first, 0.0244 for the second.

Compared with `Cc1c[nH]c2ccccc12` [skatole], `Oc1c(I)cc(Cl)c2cccnc12` [clioquinol] is lower in log: 0.0313 for the first, -1.58 for the second.

`CC[C@H](C)[C@H](N)C1=N[C@H](C(=O)N[C@@H](CC(C)C)C(=O)N[C@H](CCC(=O)O)C(=O)N[C@H](C(=O)N[C@H]2CCCCNC(=O)[C@H](CC(N)=O)NC(=O)[C@@H](CC(=O)O)NC(=O)[C@H](Cc3cnc[nH]3)NC(=O)[C@@H](Cc3ccccc3)NC(=O)[C@H]([C@@H](C)CC)NC(=O)[C@@H](CCCN)NC2=O)[C@@H](C)CC)CS1` [bacitracin] and `CCOC(=O)O[C@]1(C(=O)COC(=O)CC)CC[C@H]2[C@@H]3CCC4=CC(=O)C=C[C@]4(C)[C@H]3[C@@H](O)C[C@@]21C` [prednicarbate] are within 0.2 log units of each other in log: -0.0177 for the first, 0.0621 for the second.

`O=C(CCc1ccc(O)cc1)c1c(O)cc(O)cc1O` [phloretin] and `Oc1cc(O)c2c(c1)O[C@H](c1cc(O)c(O)c(O)c1)[C@H](O)C2` [epigallocatechin] are within 0.2 log units of each other in log: 0.229 for the first, 0.0562 for the second.

`COc1ccc(OC)c(C(O)CNC(=O)CN)c1` (stereo not drawn) [midodrine hydrochloride] and `CNC[C@H](O)c1ccc(O)c(O)c1` [epinephrine bitartrate] are within 0.2 log units of each other in log: -0.147 for the first, -0.254 for the second.

`CC(S)C(=O)NCC(=O)O` (stereo not drawn) [tiopronin] and `O=C(O)[C@@H](O)[C@H](O)[C@H](O)[C@@H](O)C(=O)O` [mucic acid] are within 0.2 log units of each other in log: 0.0724 for the first, 0.0267 for the second.

`Cn1c(=O)c2nc(C3CCCC3)[nH]c2n(C)c1=O` [8-cyclopentyltheophylline] and `Nc1ccn([C@H]2CC[C@@H](CO)O2)c(=O)n1` [zalcitabine] are within 0.2 log units of each other in log: 0.0279 for the first, 0.106 for the second.

`O=C1c2ccc(O)c(O)c2C(=O)c2c(O)ccc(O)c21` [quinalizarin] and `C=C1c2c(Cl)ccc(O)c2C(=O)C2=C(O)[C@]3(O)C(=O)C(C(N)=O)=C(O)[C@@H](N(C)C)[C@@H]3[C@@H](O)[C@H]12.O=C(O)c1cc(S(=O)(=O)O)ccc1O` [meclocycline sulfosalicylate] are within 0.2 log units of each other in log: 0.0238 for the first, 0.0671 for the second.

`COc1cc(/C=C/C(N)=O)cc(OC)c1OC` [cintriamide] and `COc1ccc2c(c1OC)C(=O)O[C@@H]2[C@H]1c2c(cc3c(c2OC)OCO3)CCN1C` [noscapine hydrochloride] are within 0.2 log units of each other in log: -0.152 for the first, -0.278 for the second.

`CN(C(=O)C(Cl)Cl)c1ccc(OC(=O)c2ccco2)cc1` [diloxanide furoate] and `COc1ccc2c(c1)c(CC(=O)O)c(C)n2C(=O)c1ccc(Cl)cc1` [indomethacin] are within 0.2 log units of each other in log: -0.0105 for the first, 0.00732 for the second.

`CC(=O)c1ccc2c(c1)N(CCCN(C)C)c1ccccc1S2` [acepromazine maleate] and `CN(C)CCOC(C)(c1ccccc1)c1ccccn1` (stereo not drawn) [doxylamine succinate] are within 0.2 log units of each other in log: -0.0539 for the first, -0.0953 for the second.

`C=CCNC(N)=S` [allylthiourea] and `O=C(O)C1CCCNC1` (stereo not drawn) [nipecotic acid] are within 0.2 log units of each other in log: 0.0836 for the first, 0.0174 for the second.

`CC(C)(C#N)c1cc(Cn2cncn2)cc(C(C)(C)C#N)c1` [anastrozole] and `CC(C)(C)NCC(O)COc1cccc2c1CCC(=O)N2` (stereo not drawn) [carteolol hydrochloride] are within 0.2 log units of each other in log: 0.0394 for the first, -0.108 for the second.

`COc1ccc(-c2cc(=O)c3c(O)c(OC)c(O[C@@H]4O[C@H](CO[C@@H]5O[C@@H](C)[C@H](O)[C@@H](O)[C@H]5O)[C@@H](O)[C@H](O)[C@H]4O)cc3o2)cc1` [pectolinarin] and `OC[C@H]1O[C@H](O[C@]2(CCl)O[C@H](CCl)[C@@H](O)[C@@H]2O)[C@H](O)[C@@H](O)[C@H]1Cl` [sucralose] are within 0.2 log units of each other in log: -0.0135 for the first, 0.186 for the second.

`CN1CCC(=C2c3ccccc3CCc3cccnc32)CC1` [azatadine maleate] and `CC1(C)C=Cc2c(c3c(c4c(=O)c(-c5ccc(O)c(O)c5)coc24)OC(C)(C)CC3)O1` [isopomiferin] are within 0.2 log units of each other in log: -0.00821 for the first, 0.0843 for the second.

Compound `Nc1nc2ccc(OC(F)(F)F)cc2s1` [riluzole] has a log of -0.143.
